Reference: PubChem BioAssay AID1671190 (National Center for Advancing Translational Sciences (NCATS), 2021)
Screen size: about 580,000 compounds; about 6,100 (1.1%) were called active. Inconclusive means that the source gave no clear call. Such entries were picked first, then a sample of the others. Calls come from the whole dose curve; as a rule, active = well fitted inhibition curve with a large enough effect; inconclusive = small, poorly fitted or top-dose-only effect, or another doubt; inactive = no such curve, though single readings can be large or run the other way. A potency beside an inconclusive call is a rough fit, not a confirmed value.

Chains of the proteins cited; added tags and fusions are not shown. Lines headed by an entry give the natural chain unless they say otherwise; changes in a name come on top.
UniProt P18054: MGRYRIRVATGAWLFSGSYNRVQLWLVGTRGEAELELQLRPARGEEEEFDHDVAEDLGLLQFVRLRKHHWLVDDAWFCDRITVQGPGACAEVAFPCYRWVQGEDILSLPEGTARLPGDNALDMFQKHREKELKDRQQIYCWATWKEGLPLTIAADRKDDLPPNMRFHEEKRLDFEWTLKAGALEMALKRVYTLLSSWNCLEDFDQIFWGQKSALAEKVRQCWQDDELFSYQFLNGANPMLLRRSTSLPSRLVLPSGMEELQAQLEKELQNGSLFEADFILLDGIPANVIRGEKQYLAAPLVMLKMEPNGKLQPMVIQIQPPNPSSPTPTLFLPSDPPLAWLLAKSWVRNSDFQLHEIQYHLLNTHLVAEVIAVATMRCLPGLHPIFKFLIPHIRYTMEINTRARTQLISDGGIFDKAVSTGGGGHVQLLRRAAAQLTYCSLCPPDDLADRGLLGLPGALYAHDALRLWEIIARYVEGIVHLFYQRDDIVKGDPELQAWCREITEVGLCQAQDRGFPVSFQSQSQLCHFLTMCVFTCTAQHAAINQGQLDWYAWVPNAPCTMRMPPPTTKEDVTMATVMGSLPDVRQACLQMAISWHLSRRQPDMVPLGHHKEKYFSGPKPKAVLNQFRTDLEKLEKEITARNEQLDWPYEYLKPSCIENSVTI

molecular target: Polyunsaturated fatty acid lipoxygenase ALOX12 (Homo sapiens) (UniProt P18054); assay: Primary qHTS assay for inhibitors of human arachidonate 12S-lipoxygenase (ALOX12): Round 2; conditions: purified 12hLO, xylenol orange hydroperoxide absorbance; activity change, negative = inhibition: at 108 µM (top of the series) unless noted
How it was run: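 Purified human 12hLO (150 nM final) in 25 mM Hepes, 0.01% Triton X-100, pH 7.0 was preincubated 15 min at room temperature with compound. Then 40 uM arachidonic acid was added, 30 min. Hydroperoxide was read by Fe-XO absorbance ratio 573/405 nm.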
% is set by controls: 0 for no effect and ±100 for the full control effect; potency is the fitted concentration of half-maximal effect.

Compound | activity change, negative = inhibition | Potency
CC1=C(C(=O)Nc2cccnc2)C(c2ccncc2)n2nnnc2N1 (configuration not stated) | inactive: 0% | 
COc1ccc(C2C=C(c3ccc(F)cc3)NC(=S)N2)cc1OC (configuration not stated) |  | inconclusive: 44.7 µM [inhibitor, partial curve, poor fit]
CC(=O)N1CCN(c2ccc([N+](=O)[O-])c(-n3nc(-c4ccc(C)cc4)c4ccccc4c3=O)c2)CC1 | inactive: -6.77% | 
COc1ccc(S(=O)(=O)N2CCC(N3CCN(c4ccccc4OC)CC3)CC2)cc1 |  | inconclusive: 12.6 µM [inhibitor, full curve]
O=C(CN1CCN(C(=O)c2ccc(I)cc2)CC1)N1CCCCC1 | inactive: 30% | 
C=CCc1cccc2cc(C(=O)Nc3ccccc3C(=O)O)c(=O)oc12 |  | inconclusive: 44.7 µM [inhibitor, partial curve, poor fit]
COc1cc(Nc2nc3ccccc3nc2C(=O)OC(C)C)cc(OC)c1 |  | active: 6.31 µM
O=C(c1ccc(C2CCCNC2)cc1)N1CCC(Oc2cccc(F)c2)CC1 (configuration not stated) | inactive: 2.77% | 
O=C(Nc1cccc(C(F)(F)F)c1)c1nc2ccccc2nc1N1CCCC1 |  | inconclusive: 100 µM [inhibitor, partial curve, poor fit]
C#CCNC(=O)C[C@@H]1c2nc(NC(=O)OCC=C)sc2C[C@@H]2[C@](C)(CO)[C@H](O)CC[C@]21C |  | inconclusive: 79.4 µM [inhibitor, partial curve, poor fit]
Cc1cccc(N2CCN(C(=O)c3cccc(N4C(=O)C5C6C=CC(C6)C5C4=O)c3)CC2C)c1 (configuration not stated) | inactive: 0% | 
Cc1ccc(-c2nc3ccccc3c(C(=O)NCc3cccs3)c2C)cc1 |  | inconclusive: 39.8 µM [inhibitor, partial curve, poor fit]
CCCCn1c(=S)[nH]c2c(=O)n(C)c(=O)n(C)c21 |  | active: 44.7 µM
COc1cccc(NC(=O)Nc2c(NC3CCCC3)c3ccccc3oc2=O)c1 |  | inconclusive: 50.1 µM [inhibitor, partial curve, poor fit]
CN1CCN(c2cc(=O)n(C3CCCCC3)c(=O)[nH]2)CC1 | inactive: 16.1% | 
Cc1ccc(C(=O)NCC(=O)NCCN2CCc3ccccc3C2)cc1 |  | inconclusive: 44.7 µM [inhibitor, partial curve, poor fit]
CCn1ccc2cc(S(=O)(=O)N3CCCN(C(=O)Nc4cccc(SC)c4)CC3)ccc21 |  | inconclusive: 39.8 µM [inhibitor, partial curve, poor fit]
O=C(O)c1ccc(/C=N/NC(=S)NCc2ccccc2)cc1 |  | inconclusive: 44.7 µM [inhibitor, partial curve, poor fit]
CCN(CC)C(=O)[C@H]1C[C@H](CC(=O)NCc2ccco2)C(=O)N2CCc3c([nH]c4cc(-c5ccco5)ccc34)[C@]12C |  | inconclusive: 89.1 µM [inhibitor, single point]
COc1ccccc1-n1[nH]c(CSc2nnnn2-c2ccccc2)cc1=O |  | inconclusive: 79.4 µM [inhibitor, partial curve, poor fit]
CCN(CC)CC(=O)N1c2ccccc2Sc2ccccc21 | inactive: -26.1% | 

Looked up one by one from the list above:
Compound | activity change, negative = inhibition | Potency
O=C(c1ccc(C2CCCNC2)cc1)N1CCC(Oc2cccc(F)c2)CC1 (configuration not stated) | inactive: 2.77% | 
CCCCn1c(=S)[nH]c2c(=O)n(C)c(=O)n(C)c21 |  | active: 44.7 µM

Later entries:

Compound | activity change, negative = inhibition | Potency
O=C(Nc1ccccc1OC(F)(F)F)c1ccc([N+](=O)[O-])cc1 |  | inconclusive: 39.8 µM [inhibitor, partial curve, poor fit]
Cc1ccc(S(=O)(=O)Nc2ccc(S(=O)(=O)Nc3ccccc3)cc2[N+](=O)[O-])cc1 |  | active: 25.1 µM
COC(=O)c1sccc1-n1cccc1C(=O)C(=O)N1CCCC1 | inactive: 0% | 
CCOc1ccc(N(C)S(=O)(=O)c2ccc3[nH]cc(C(=O)NCC(OC)OC)c(=O)c3c2)cc1 |  | inconclusive: 25.1 µM [inhibitor, partial curve, poor fit]
CC(/C=N/n1c(-c2ccco2)n[nH]c1=S)=C\c1ccco1 |  | inconclusive: 56.2 µM [inhibitor, partial curve, poor fit]
COCCNC(=O)Nc1ccc2nc(-c3cccs3)c(-c3cccs3)nc2c1 |  | inconclusive: 35.5 µM [inhibitor, partial curve, poor fit]
CCc1nc2ccccc2c(NC(=O)CN2CCN(c3ccccc3)CC2)c1C |  | inconclusive: 0.447 µM [inhibitor, full curve, poor fit]
CC(=O)Nc1ccc(-c2ccnc3c2CC(C)(C(=O)Nc2ccc(Cl)c(C(F)(F)F)c2)O3)cc1 (configuration not stated) |  | inconclusive: 79.4 µM [inhibitor, single point]
CCOCCCNc1nc(=S)[nH]c2cc(OC)c(OC)cc12 | inactive: -23.3% | 
O=C(Nc1sc2c(c1C(=O)O)CCCC2)c1cccs1 |  | inactive
CCC1CCCCN1Cc1c(O)ccc2c(=O)c(-c3ccccc3)coc12 (configuration not stated) | inactive: -62% | 
Nc1nc2c(s1)C(c1cccc(F)c1F)CC(=O)N2 (configuration not stated) |  | active: 15.8 µM
NC(=O)C1CCN(c2nc(-c3ccccc3)nc3c2oc2ccccc23)CC1 |  | inconclusive: 126 µM [inhibitor, single point]
N#C/C(=C/c1ccccc1Cl)c1nc2ccccc2c(=O)[nH]1 | inactive: 0% | 
CCCCCCNC(=O)c1c[nH]c2ccc(S(=O)(=O)N(C)c3ccc(C(C)C)cc3)cc2c1=O |  | inconclusive: 56.2 µM [inhibitor, partial curve, poor fit]
Cc1c(Cl)cccc1NC(=S)/C(=C(\[O-])c1ccc(Cl)s1)[n+]1ccccc1 |  | inconclusive: 50.1 µM [inhibitor, partial curve, poor fit]
O=S(=O)(NN=Cc1ccc(O)cc1O)c1cc(Cl)c(Cl)cc1Cl |  | inconclusive: 50.1 µM [inhibitor, partial curve, poor fit]
CCN1CCCC2(CCN(C(=O)Cn3ccccc3=O)C2)C1=O (configuration not stated) | inactive: -29.2% | 
CCC(c1nnnn1Cc1ccc(OC)cc1)N1CCN(c2ccc(OC)cc2)CC1 (configuration not stated) |  | inconclusive: 44.7 µM [inhibitor, partial curve, poor fit]
CCCCCCCCCOc1ccc(C#N)c(O)c1 |  | inconclusive: 39.8 µM [inhibitor, partial curve, poor fit]
NS(=O)(=O)c1ccc(N=Nc2c(-c3ccccc3)[nH]n(-c3nc(-c4ccccc4)cs3)c2=O)cc1 | inactive: 1.83% | 
